PubChem BioAssay AID1259317, Drosophila RNAi Screening Center – 2017

Screen: 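Membrane and organelle genes affecting manganese toxicity, judged by cellular ATP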 (primary screen)
System: Drosophila S2R+ cells
Knock-down reagent: long dsRNA against Drosophila genes
Timing: 5 days (4 days knockdown, then 1 day metal)
Challenge: manganese chloride added to 15 mM final for 1 day
Measurement: 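Cellular ATP measured by luciferase luminescence after 4 days knockdown then 1 day of 15 mM manganese chloride; z-score averaged over three plates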
Reading the numbers: mean z-score, 3 replicates: higher = more ATP, more surviving cells under manganese
Active means: 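Active calls require an absolute mean z-score greater than 1.5, in either direction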
Calls: active = hit: z-score beyond ±1.5 (ATP up or down); inactive = not a hit
The whole screen tested 418 reagents; below is an unselected part. Of all reagents, 34 (8.1%) are marked active. 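Hits are two-sided: raised or lowered ATP both count; higher z-score means more ATP and more surviving cells.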 Reagent sequences are not shown. Not stated in the record: the amount of reagent.

CG17597 [DRSC02630]
- mean z-score, 3 replicates: 0.0436
- Call: inactive

CG17597 [DRSC24788]
- mean z-score, 3 replicates: -0.297
- Call: inactive

Vps26 [DRSC23556]
- mean z-score, 3 replicates: -0.809
- Call: inactive

Vps26 [DRSC37369]
- mean z-score, 3 replicates: -0.336
- Call: inactive

VhaM9.7-b [DRSC11841]
- mean z-score, 3 replicates: 0.728
- Call: inactive

VhaM9.7-b [DRSC40199]
- mean z-score, 3 replicates: 1.04
- Call: inactive

Xpc [DRSC07654]
- mean z-score, 3 replicates: -0.158
- Call: inactive

Xpd [DRSC27757]
- mean z-score, 3 replicates: 0.114
- Call: inactive

Xpd [DRSC36088]
- mean z-score, 3 replicates: 1.38
- Call: inactive

Xpd [DRSC41045]
- mean z-score, 3 replicates: -0.0525
- Call: inactive

Vha100-1 [DRSC26617]
- mean z-score, 3 replicates: 0.481
- Call: inactive

Vha100-1 [DRSC38989]
- mean z-score, 3 replicates: -0.446
- Call: inactive

Vha100-1 [DRSC39862]
- mean z-score, 3 replicates: -0.499
- Call: inactive

Had2 [DRSC05971]
- mean z-score, 3 replicates: 0.388
- Call: inactive

Had2 [DRSC26955]
- mean z-score, 3 replicates: 2.69
- Call: active

ACOX1 [DRSC05941]
- mean z-score, 3 replicates: -0.226
- Call: inactive

ACOX1 [DRSC24604]
- mean z-score, 3 replicates: 0.579
- Call: inactive

CG33128 [DRSC00294]
- mean z-score, 3 replicates: -1.11
- Call: inactive

CG33128 [DRSC28698]
- mean z-score, 3 replicates: -0.992
- Call: inactive

Gnpat [DRSC16960]
- mean z-score, 3 replicates: -0.0894
- Call: inactive

Gnpat [DRSC40415]
- mean z-score, 3 replicates: -0.806
- Call: inactive

Agxt [DRSC18718]
- mean z-score, 3 replicates: -0.659
- Call: inactive

Agxt [DRSC26115]
- mean z-score, 3 replicates: -0.136
- Call: inactive

Sap-r [DRSC21916]
- mean z-score, 3 replicates: -0.936
- Call: inactive

Sap-r [DRSC27246]
- mean z-score, 3 replicates: -0.468
- Call: inactive

CG3376 [DRSC04362]
- mean z-score, 3 replicates: -0.503
- Call: inactive

CG3376 [DRSC26489]
- mean z-score, 3 replicates: -0.092
- Call: inactive

Rgk1 [DRSC05785]
- mean z-score, 3 replicates: -0.449
- Call: inactive

Rgk1 [DRSC23535]
- mean z-score, 3 replicates: -0.371
- Call: inactive

Rgk1 [DRSC37293]
- mean z-score, 3 replicates: 0.0114
- Call: inactive

Daao1 [DRSC06131]
- mean z-score, 3 replicates: 0.468
- Call: inactive

Acox3 [DRSC03251]
- mean z-score, 3 replicates: -0.0568
- Call: inactive

Acox3 [DRSC23799]
- mean z-score, 3 replicates: 0.77
- Call: inactive

Daao2 [DRSC02135]
- mean z-score, 3 replicates: 0.961
- Call: inactive

Pex16 [DRSC11750]
- mean z-score, 3 replicates: 0.0623
- Call: inactive

Hgsnat [DRSC18405]
- mean z-score, 3 replicates: -0.461
- Call: inactive

Hgsnat [DRSC24716]
- mean z-score, 3 replicates: 0.479
- Call: inactive

Hgsnat [DRSC37969]
- mean z-score, 3 replicates: -1.06
- Call: inactive

Lamp1 [DRSC03727]
- mean z-score, 3 replicates: -0.612
- Call: inactive

Lamp1 [DRSC31130]
- mean z-score, 3 replicates: -1.14
- Call: inactive

Lamp1 [DRSC31131]
- mean z-score, 3 replicates: -1.06
- Call: inactive

ClC-b [DRSC07220]
- mean z-score, 3 replicates: 0.954
- Call: inactive

ClC-b [DRSC37711]
- mean z-score, 3 replicates: -0.0616
- Call: inactive

ClC-b [DRSC39990]
- mean z-score, 3 replicates: -0.889
- Call: inactive

Gal [DRSC03134]
- mean z-score, 3 replicates: 0.0989
- Call: inactive

Gal [DRSC24562]
- mean z-score, 3 replicates: -0.432
- Call: inactive

Acsl [DRSC07252]
- mean z-score, 3 replicates: -2.01
- Call: active

Acsl [DRSC35814]
- mean z-score, 3 replicates: -1.19
- Call: inactive

Laid out differently: entries from further up
target	dsRNA	mean z-score, 3 replicates	Call
Had2	DRSC05971	0.388	inactive
Had2	DRSC26955	2.69	active
ACOX1	DRSC05941	-0.226	inactive
ACOX1	DRSC24604	0.579	inactive
CG33128	DRSC00294	-1.11	inactive
CG33128	DRSC28698	-0.992	inactive
Gnpat	DRSC16960	-0.0894	inactive
